Laboratory results: PubChem BioAssay AID1224830 (NIAID, 2016)

- Test: 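Genes whose knock-down alters the TNF-alpha reporter response to LPS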 (primary screen)
- Cell system: human THP-1 monocytic leukaemia cells, TNF dual-luciferase reporter clone, PMA-differentiated to macrophage-like cells
- Knock-down reagent: siRNA pool against human genes, 50 nM
- Time to read-out: LPS for 4 h, given about 3 days after siRNA transfection
- Challenge: bacterial LPS (TLR4 ligand), 10 ng/ml
- Read-out: 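Ratio of firefly to renilla light, scaled to the plate median and expressed as a robust z-score per replicate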
- Scale: TNF reporter robust z-score: higher = stronger TNF reporter response to LPS
- Active means: 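a well is active when its z-score exceeds 2.8 or falls below -1.5; control wells carry no call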
This is a random part of about 18,000 deposited reagents. About 2,900 of all reagents (16%) count as active. 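Calls are made per well; low scores hint the gene aids the LPS response, high scores that it dampens it.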 A number with no mark means an inactive call. Repeated entries: four replicate wells of each siRNA pool. Reagent sequences are not shown.

TNF reporter robust z-score	gene knocked down
-1.33	ARF4
-0.08	ARF4
-0.85	ARF4
-0.23	ARF4
0.1	GTF2A1L
2.8 (active)	GTF2A1L
0.02	GTF2A1L
0.35	GTF2A1L
0.26	SPAG9
2.13	SPAG9
0.65	SPAG9
1.03	SPAG9
-0.05	OR3A2
0.49	OR3A2
-0.83	OR3A2
-0.35	OR3A2
-1.32	PDCL2
-0.13	PDCL2
0.22	PDCL2
-0.37	PDCL2
0.42	INHBC
0.02	INHBC
-0.32	INHBC
0.24	INHBC
-0.66	USP24
-0.23	USP24
1.15	USP24
0.88	USP24
3.45 (active)	IPMK
2.06	IPMK
3.6 (active)	IPMK
3.57 (active)	IPMK
-0.25	PSME3
-0.59	PSME3
-0.64	PSME3
-0.53	PSME3
-0.76	MSH4
-0.58	MSH4
-0.97	MSH4
-0.62	MSH4
-0.58	ENPP3
0.8	ENPP3
0.34	ENPP3
1.55	ENPP3
-0.33	CDSN
0.21	CDSN
1.6	CDSN
-0.36	CDSN
-0.5	ACSL6
-0.86	ACSL6
0.1	ACSL6
0.26	ACSL6
-1.15	NMNAT3
-1.76 (active)	NMNAT3
-1.01	NMNAT3
-1.32	NMNAT3
-0.48	NKAIN2
-0.8	NKAIN2
-0.92	NKAIN2
-0.23	NKAIN2
-0.84	MAMDC4
-1.03	MAMDC4
-0.49	MAMDC4
-0.56	MAMDC4
-0.2	C15orf40
0.85	C15orf40
0.5	C15orf40
0.49	C15orf40
-0.46	HOXC11
-0.38	HOXC11
-1.1	HOXC11
0.54	HOXC11
-0.53	POLN
-0.22	POLN
-0.16	POLN
0.37	POLN
-0.87	CWF19L2
-0.68	CWF19L2
1.63	CWF19L2
0.38	CWF19L2
-0.31	HUWE1
-0.72	HUWE1
0.12	HUWE1
0.62	HUWE1
-0.28	WBP11
-1.39	WBP11
-0.51	WBP11
1.49	WBP11
1.24	TRIM6-TRIM34
-1.5	TRIM6-TRIM34
0.28	TRIM6-TRIM34
2.67	TRIM6-TRIM34
0.44	CIMIP4
2.77	CIMIP4
-1	CIMIP4
0.42	CIMIP4
-1.8 (active)	RPL7L1
-1.22	RPL7L1
-2.15 (active)	RPL7L1
-1.31	RPL7L1
-0.93	TXNIP
-0.81	TXNIP
-0.83	TXNIP
0.29	TXNIP
1.23	SYN3
2.12	SYN3
-0.77	SYN3
-0.72	SYN3
0.35	UPF1
0.98	UPF1
0.08	UPF1
0.39	UPF1
-0.41	GRP
-0.63	GRP
0.31	GRP
-0.49	GRP
1.64	TRHDE
0.73	TRHDE
-0.27	TRHDE
-1.14	TRHDE
-0.35	EIF4EBP3
-0.3	EIF4EBP3
-0.27	EIF4EBP3
-0.12	EIF4EBP3
0.94	CHRNA6
0.16	CHRNA6
0.28	CHRNA6
0.69	CHRNA6
-0.7	PRL
-0.78	PRL
-0.99	PRL
-0.08	PRL
0.24	SF3A2
0.96	SF3A2
0.67	SF3A2
0.69	SF3A2
-0.04	ZNF415
1.04	ZNF415
0.68	ZNF415
0.98	ZNF415

Records listed so far whose gene name begins with H or h:
TNF reporter robust z-score	gene knocked down
-0.46	HOXC11
-0.38	HOXC11
-1.1	HOXC11
0.54	HOXC11
-0.31	HUWE1
-0.72	HUWE1
0.12	HUWE1
0.62	HUWE1
